Experimental data taken from patent US7906477B2 (Genspera, Inc., priority 2002, dated 2011).

Test: general procedure: Fmoc solid-phase peptide synthesis; PEGA resin; Fmoc-Lys(Mtt)-Wang resin; Fmoc-Leu-Wang resin; HBTU/NMM; Hobt/DIC
Conditions: conjugation step

## acGKAFRRL-12ADT
  conjugation yield: 60-70%
